Data published in patent US5434068.
For part of these data: A negative result means that nothing was seen under these conditions. Tags and fusion partners may be left off the protein sequences shown.

Experiments:
[1] = target: T1, BglII restriction endonuclease (UniProt Q45488); assay: enzyme reaction in vitro; settings: purified native protein, protein details: New England Biolabs
T1 sequence (looked up, limits assumed): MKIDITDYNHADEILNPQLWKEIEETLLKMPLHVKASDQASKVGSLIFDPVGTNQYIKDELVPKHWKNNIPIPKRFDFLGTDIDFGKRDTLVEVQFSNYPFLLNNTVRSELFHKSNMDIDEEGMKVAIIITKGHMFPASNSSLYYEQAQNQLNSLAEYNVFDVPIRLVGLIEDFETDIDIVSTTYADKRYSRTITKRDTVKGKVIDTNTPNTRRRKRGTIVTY

[2] = target: T2, BglII modification methylase (M.BglII) (Bacillus globigii) (UniProt Q45489); assay: activity in cells; settings: methylated in vivo by M.BglII; in vivo methylation in E. coli RR1; protein in cells; variant of pAMB3 plasmid with BglII linkers; only the site is given
T2 sequence (looked up, limits assumed): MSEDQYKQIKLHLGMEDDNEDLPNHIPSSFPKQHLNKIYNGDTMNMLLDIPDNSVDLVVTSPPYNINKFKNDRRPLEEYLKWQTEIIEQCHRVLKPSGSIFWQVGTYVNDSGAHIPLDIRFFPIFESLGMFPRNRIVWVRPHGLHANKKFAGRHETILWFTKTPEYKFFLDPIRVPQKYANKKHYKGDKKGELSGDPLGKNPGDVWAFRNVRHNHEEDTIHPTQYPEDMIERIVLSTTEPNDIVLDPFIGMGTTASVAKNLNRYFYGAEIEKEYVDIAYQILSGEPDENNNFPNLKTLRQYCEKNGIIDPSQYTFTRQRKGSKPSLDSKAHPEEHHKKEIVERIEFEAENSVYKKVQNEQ

| Sequence | activity on this sequence ([1]; vector religated after loss of bglIIM insert) | activity on this sequence [2] | activity on this sequence ([1]; methylated in vivo by M.BglII, 15 of 16 surviving plasmids resistant, M.BglII-modified, variant of pAMB3 plasmid with BglII linkers, only the site is given) |
| --- | --- | --- | --- |
| CAGATCTG (double strand) [pAMB3 plasmid with BglII linkers] | active | – | – |
| CAGATCTG (double strand) [pMB05 (pAMB3 carrying bglIIM, modified in vivo)] | – | active | not active |
